The full ranking holds about 33,000 sequences; the median of “E-score (-0.5 to 0.5)” is about -0.0059, and the highest 2% start at about 0.26. Some of the results follow.

For this experiment, the target named is T1, Cin5 (UniProt P40917).
T1 sequence: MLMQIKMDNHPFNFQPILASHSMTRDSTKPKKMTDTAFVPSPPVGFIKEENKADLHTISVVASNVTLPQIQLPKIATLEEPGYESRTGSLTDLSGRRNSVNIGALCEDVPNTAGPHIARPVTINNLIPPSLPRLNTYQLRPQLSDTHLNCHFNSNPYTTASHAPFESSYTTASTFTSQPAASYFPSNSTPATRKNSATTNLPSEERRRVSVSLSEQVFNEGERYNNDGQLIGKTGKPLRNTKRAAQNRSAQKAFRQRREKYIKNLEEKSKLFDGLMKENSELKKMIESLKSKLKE
Put plainly: PBM E-score (8-mer binding enrichment) (E-score (-0.5 to 0.5)); higher = stronger / more preferred TF binding. Particulars: protein concentration: 100 nM; construct: GST-full length. A digest of the protocol: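 Using PURExpress in vitro transcription/translation, GST-tagged yeast transcription factors were made in full-length or DNA-binding-domain form. These were applied at about 100-200 nM to double-stranded universal all-10-mer Agilent arrays, and bound protein was detected with fluorescent anti-GST. Scans were normalised with masliner before the Universal PBM Analysis Suite assigned E-scores to ungapped eight-base words pooled with their reverse complements.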
As to AATATTAC, the “PBM E-score” value was 0.294.

Turning to ACTCTGGC, the “PBM E-score” value was -0.0926.

Regarding GCGCGTTA, the “PBM E-score” value worked out at 0.0369.

AGCGTCAA: the “PBM E-score” value is -0.0654.

Turning to AGAGTCAT, the “PBM E-score” value was -0.211.

Turning to ATTGACGC, the “PBM E-score” value came out at 0.0226.

In the case of ACTTCGAA, the “PBM E-score” value is -0.0401.

With ACCCCCAC, the “PBM E-score” value is -0.499.

Regarding TAAGGGGA, the “PBM E-score” value is -0.0738.

Consider ATAACAAT, for which the “PBM E-score” value amounted to 0.158.

ATCATCGG: the “PBM E-score” value is -0.0926.

Turning to ACTTATAG, the “PBM E-score” value came to 0.0109.

As for AAGCGAGT, the “PBM E-score” value was 0.213.

For the sequence ATTAAAAG, the “PBM E-score” value came out at 0.0602.

As for ATAAAGAC, the “PBM E-score” value is -0.0136.

In the case of ATCCGCTC, the “PBM E-score” value is -0.0897.

For ATCGCCAT, the “PBM E-score” value was 0.0802.

Regarding AAACGCGA, the “PBM E-score” value came out at 0.0555.

In the case of GTCGCGTA, the “PBM E-score” value was 0.054.

For GAAGGGGC, the “PBM E-score” value was -0.222.

As to TGAGAACA, the “PBM E-score” value came out at 0.0792.

As for CATCTTGG, the “PBM E-score” value is 0.0766.

With CATCGGCA, the “PBM E-score” value was -0.113.

As for AGTGATAT, the “PBM E-score” value came to 0.0781.

As for CGAAGTAC, the “PBM E-score” value is 0.0621.

In the case of GGATTACA, the “PBM E-score” value was 0.19.

As for ACACACAC, the “PBM E-score” value is -0.0287.

For the sequence CGAGAATA, the “PBM E-score” value stood at 0.253.

As to AGACCAAT, the “PBM E-score” value was found to be 0.0449.

In the case of AGGGCGGG, the “PBM E-score” value was found to be 0.0413.

As for TACTTGAA, the “PBM E-score” value was 0.0539.

Take GCAGTACA: the “PBM E-score” value is -0.163.

Regarding CAACGAAG, the “PBM E-score” value was -0.158.

Consider CTACCAAG, for which the “PBM E-score” value was -0.0838.

For the sequence AAGGCCAG, the “PBM E-score” value was -0.137.

As to AGCGTACT, the “PBM E-score” value was found to be 0.0381.

On to ATATGTTG, for which the “PBM E-score” value amounted to 0.172.

AGGTGCAA: the “PBM E-score” value is -0.0194.

As to GTCGAGAA, the “PBM E-score” value was 0.00963.

Consider GGAAATCA, for which the “PBM E-score” value worked out at 0.0625.

Regarding CCCCAAAG, the “PBM E-score” value is -0.236.

On to ATGGACAG, for which the “PBM E-score” value is -0.15.

In the case of ATATCTCC, the “PBM E-score” value was 0.173.

On to GTGAAGAA, for which the “PBM E-score” value was determined as 0.0248.

As for CAGTAGCC, the “PBM E-score” value is -0.312.

Turning to AAATCGCT, the “PBM E-score” value is -0.124.

As to AAGATCGC, the “PBM E-score” value is -0.0416.

On to CCGGGAAG, for which the “PBM E-score” value is -0.021.

AGAGTATG: the “PBM E-score” value was -0.118.

As to CGATACAG, the “PBM E-score” value is -0.0635.

Take CCAATTTC: the “PBM E-score” value is 0.137.

In the case of ACACGTCC, the “PBM E-score” value was -0.246.

On to CCGTCCGA, for which the “PBM E-score” value is -0.221.

Turning to AGGTTAAC, the “PBM E-score” value stood at 0.107.

As for CATTGACG, the “PBM E-score” value amounted to 0.0763.

CCGTAGCA: the “PBM E-score” value was -0.158.

As for GAACGAAA, the “PBM E-score” value was 0.131.

Consider CCAGTGGG, for which the “PBM E-score” value is -0.18.

In the case of ACCTTTGC, the “PBM E-score” value is -0.0674.

As to ATAGAGTC, the “PBM E-score” value was -0.111.

As to GGTACTTA, the “PBM E-score” value is -0.0151.

For AGTTTATC, the “PBM E-score” value was 0.159.

For CTTTGCCA, the “PBM E-score” value is -0.0807.

As to ATTGCGGC, the “PBM E-score” value was -0.0538.

With CTGGAGGC, the “PBM E-score” value was -0.117.

As for ATTATCTG, the “PBM E-score” value is 0.152.

As to ACCGCAAA, the “PBM E-score” value is -0.00101.

Consider AATTCTTA, for which the “PBM E-score” value came out at 0.0553.

Take CCCGGGAA: the “PBM E-score” value came to 0.0212.

As to ATTCGGGA, the “PBM E-score” value amounted to 0.0693.

Regarding CCATCGTA, the “PBM E-score” value was found to be 0.0405.

Take GACAGACA: the “PBM E-score” value was found to be 0.16.

For AACATGTC, the “PBM E-score” value worked out at 0.0503.

As for CGACAACG, the “PBM E-score” value was -0.0949.

As for AACTGCGG, the “PBM E-score” value is 0.124.

Regarding ATTAACGA, the “PBM E-score” value worked out at 0.156.

Turning to AATAGAGG, the “PBM E-score” value was -0.0845.

For the sequence CCGCCGAG, the “PBM E-score” value is -0.0417.

Regarding ATCTTACG, the “PBM E-score” value was found to be 0.164.

Regarding AAGTTTGG, the “PBM E-score” value came out at 0.155.

In the case of AACTAAGT, the “PBM E-score” value is 0.0793.

For the sequence CCTTCACG, the “PBM E-score” value was -0.0963.

Take CCCTGCAG: the “PBM E-score” value was -0.00831.

Take CGTGAGAG: the “PBM E-score” value is -0.215.

For the sequence GGCCAAGA, the “PBM E-score” value is -0.16.

Regarding CCAAAGTC, the “PBM E-score” value was -0.128.

(Values after the supplement of paper PMC3334620.)
